Experimental data published in patent US20220409665A1.
No constants are given. Whether binding was seen depends on the method and setting. Some entries that bind do so weakly or less than the wild type.

Target: T1, CD70 trimer complex (human) (UniProt P32970)
T1 sequence (chain, site-specifically biotinylated via co-expression with BirA): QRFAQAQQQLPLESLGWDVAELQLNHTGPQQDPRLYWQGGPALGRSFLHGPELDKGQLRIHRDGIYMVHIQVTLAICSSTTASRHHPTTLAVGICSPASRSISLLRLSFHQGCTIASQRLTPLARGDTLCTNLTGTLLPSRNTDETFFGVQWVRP
Assay: SPR (Biacore T200), biotinylated CD70 trimer mutants captured on CAP surface, 100 nM Fab as analyte

B1: anti-CD70 antibody clone 8C8, Fab (Fab, V domains shown)
VH: EVQLVESGGGLVKPGGSLRLSCVASGFTFSSYSMNWVRQFPGKGLEWVSSISTSSNYIHYADSLQGRFTISRDNAKNSLYLQMSSLRVEDTAVYYCVRDKGTTLTNWYFDLWGRGTLVTVSS
VL: DMQMTQSPSSLSASVGDRVTLTCRASQGISNYLAWFQLKPGKVPKLLIYAASTLQSGVPSRFSGSGSGTDFALTISSLQPEDVATYYCQKYNSAPLTFGGGTKVEIK
For B1, the binding was “binds”.
